These are yes or no findings as the source states them, for the method shown. Binding seen in cells or lysates may run through a third protein. Some results given as binding are weak or reduced against the parent protein; the word gives no strength.

The chains behind the UniProt entries cited, without tags or fusion partners.
UniProt Q9UHP3: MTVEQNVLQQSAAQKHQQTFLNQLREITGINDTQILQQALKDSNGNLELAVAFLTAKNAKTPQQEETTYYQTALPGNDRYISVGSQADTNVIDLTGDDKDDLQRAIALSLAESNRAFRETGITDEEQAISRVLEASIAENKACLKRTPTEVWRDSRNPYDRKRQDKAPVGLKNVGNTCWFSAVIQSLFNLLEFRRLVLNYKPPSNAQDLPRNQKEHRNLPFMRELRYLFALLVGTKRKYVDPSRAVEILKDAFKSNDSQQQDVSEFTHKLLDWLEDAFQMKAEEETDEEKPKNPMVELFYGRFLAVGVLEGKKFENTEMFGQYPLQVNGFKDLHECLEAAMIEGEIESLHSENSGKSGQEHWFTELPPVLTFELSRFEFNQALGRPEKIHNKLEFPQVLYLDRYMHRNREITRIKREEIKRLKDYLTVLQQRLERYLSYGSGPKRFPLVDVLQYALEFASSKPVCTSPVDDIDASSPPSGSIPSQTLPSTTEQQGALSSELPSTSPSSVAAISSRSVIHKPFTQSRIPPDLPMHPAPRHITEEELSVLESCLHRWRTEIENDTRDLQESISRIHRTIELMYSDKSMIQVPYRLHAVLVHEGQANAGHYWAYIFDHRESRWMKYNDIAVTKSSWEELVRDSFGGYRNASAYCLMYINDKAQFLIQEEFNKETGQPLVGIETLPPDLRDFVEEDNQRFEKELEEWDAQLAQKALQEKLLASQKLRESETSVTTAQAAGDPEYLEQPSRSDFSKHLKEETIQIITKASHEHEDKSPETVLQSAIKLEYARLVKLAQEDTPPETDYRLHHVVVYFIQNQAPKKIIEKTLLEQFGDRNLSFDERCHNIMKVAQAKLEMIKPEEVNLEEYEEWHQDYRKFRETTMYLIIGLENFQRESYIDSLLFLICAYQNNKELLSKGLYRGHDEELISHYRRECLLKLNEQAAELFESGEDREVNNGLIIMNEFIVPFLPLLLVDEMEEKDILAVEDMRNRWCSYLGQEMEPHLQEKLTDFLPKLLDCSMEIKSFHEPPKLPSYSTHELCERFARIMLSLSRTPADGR
UniProt Q96RU2: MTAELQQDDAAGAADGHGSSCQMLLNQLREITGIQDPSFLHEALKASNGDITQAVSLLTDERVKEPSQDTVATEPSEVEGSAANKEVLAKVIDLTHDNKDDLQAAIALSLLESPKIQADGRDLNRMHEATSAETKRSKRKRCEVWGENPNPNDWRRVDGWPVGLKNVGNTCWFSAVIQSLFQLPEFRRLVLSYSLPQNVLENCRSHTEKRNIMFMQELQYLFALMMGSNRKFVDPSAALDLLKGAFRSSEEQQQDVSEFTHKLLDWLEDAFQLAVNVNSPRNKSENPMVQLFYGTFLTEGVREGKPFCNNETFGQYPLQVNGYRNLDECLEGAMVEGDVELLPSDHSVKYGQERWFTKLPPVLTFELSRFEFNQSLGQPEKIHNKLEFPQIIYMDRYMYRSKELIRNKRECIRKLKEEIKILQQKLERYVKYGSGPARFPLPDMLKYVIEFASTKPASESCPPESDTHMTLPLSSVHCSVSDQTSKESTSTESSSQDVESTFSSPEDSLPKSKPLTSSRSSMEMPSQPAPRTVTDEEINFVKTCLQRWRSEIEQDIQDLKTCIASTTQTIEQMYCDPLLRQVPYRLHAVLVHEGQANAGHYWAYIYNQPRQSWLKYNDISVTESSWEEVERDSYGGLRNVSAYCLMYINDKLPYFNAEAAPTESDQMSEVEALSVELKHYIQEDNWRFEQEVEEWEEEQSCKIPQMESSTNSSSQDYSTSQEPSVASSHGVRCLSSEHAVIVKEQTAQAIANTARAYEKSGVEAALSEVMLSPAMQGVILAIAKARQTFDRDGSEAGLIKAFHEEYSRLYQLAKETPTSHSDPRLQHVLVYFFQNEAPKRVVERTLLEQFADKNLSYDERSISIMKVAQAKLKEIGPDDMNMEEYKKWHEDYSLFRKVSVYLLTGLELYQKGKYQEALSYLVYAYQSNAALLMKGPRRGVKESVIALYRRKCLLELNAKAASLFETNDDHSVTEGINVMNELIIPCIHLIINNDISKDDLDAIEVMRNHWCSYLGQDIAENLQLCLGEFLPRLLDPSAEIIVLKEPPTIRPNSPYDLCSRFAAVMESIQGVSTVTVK

This note sets out measurements from doi:10.1101/683508.

What all share (assay): co-IP
Assay [1] addresses T1, endogenous ΔNp63 (human (endogenous in A431)) (UniProt Q9H3D4).
T1 sequence: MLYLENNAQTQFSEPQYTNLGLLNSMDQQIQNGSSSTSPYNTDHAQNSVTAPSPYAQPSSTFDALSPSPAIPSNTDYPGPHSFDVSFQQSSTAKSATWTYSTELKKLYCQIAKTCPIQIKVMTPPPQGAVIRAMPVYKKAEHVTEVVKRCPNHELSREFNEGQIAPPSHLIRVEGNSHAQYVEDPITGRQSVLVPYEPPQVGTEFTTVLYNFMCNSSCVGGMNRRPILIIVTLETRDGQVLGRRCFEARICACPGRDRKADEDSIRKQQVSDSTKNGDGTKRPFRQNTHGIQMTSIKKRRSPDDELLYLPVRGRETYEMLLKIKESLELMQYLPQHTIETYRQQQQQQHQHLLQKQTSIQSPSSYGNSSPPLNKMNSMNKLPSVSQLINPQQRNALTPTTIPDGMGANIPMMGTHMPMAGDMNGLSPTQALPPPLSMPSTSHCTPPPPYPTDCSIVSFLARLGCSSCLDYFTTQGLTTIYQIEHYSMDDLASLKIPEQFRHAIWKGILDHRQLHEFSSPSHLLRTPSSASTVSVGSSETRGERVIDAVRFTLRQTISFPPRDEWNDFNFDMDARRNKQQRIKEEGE

The target of assay [2] is endogenous USP25 (human (endogenous in A431)) (UniProt Q9UHP3).
Assay [3] addresses endogenous USP28 (human (endogenous in A431)) (UniProt Q96RU2).

In the case of “endogenous USP25 (from UniProt Q9UHP3 1-1055) (enzyme)”, the binding result in assay [1] was “no binding”.

B1: endogenous ΔNp63 (protein, UniProt Q9H3D4-2 1-586)
chain: MLYLENNAQTQFSEPQYTNLGLLNSMDQQIQNGSSSTSPYNTDHAQNSVTAPSPYAQPSSTFDALSPSPAIPSNTDYPGPHSFDVSFQQSSTAKSATWTYSTELKKLYCQIAKTCPIQIKVMTPPPQGAVIRAMPVYKKAEHVTEVVKRCPNHELSREFNEGQIAPPSHLIRVEGNSHAQYVEDPITGRQSVLVPYEPPQVGTEFTTVLYNFMCNSSCVGGMNRRPILIIVTLETRDGQVLGRRCFEARICACPGRDRKADEDSIRKQQVSDSTKNGDGTKRPFRQNTHGIQMTSIKKRRSPDDELLYLPVRGRETYEMLLKIKESLELMQYLPQHTIETYRQQQQQQHQHLLQKQTSIQSPSSYGNSSPPLNKMNSMNKLPSVSQLINPQQRNALTPTTIPDGMGANIPMMGTHMPMAGDMNGLSPTQALPPPLSMPSTSHCTPPPPYPTDCSIVSFLARLGCSSCLDYFTTQGLTTIYQIEHYSMDDLASLKIPEQFRHAIWKGILDHRQLHEFSSPSHLLRTPSSASTVSVGSSETRGERVIDAVRFTLRQTISFPPRDEWNDFNFDMDARRNKQQRIKEEGE
With B1, the binding result in assay [2] is given as “no binding”; in assay [3] it was “binds”.
